test: Tabletting trouble when the crystal is used as main component to prepare tablets; details: D-form crystal used as a main component to prepare tablets
Experimental: A fumarate salt of compound (I) (11.6 kg) was dissolved at 25° C. in a mixed solvent of ethyl acetate (104.6 kg) and methanol (9.2 kg). After the solution was concentrated, ethyl acetate (86.8 kg) was added at 25° C. to the concentrated residue, followed by stirring at 24° C. for 1 hour to give a C-form crystal. After addition of water (2.0%, 1.9 kg), this C-form crystal was gradually cooled to ensure its conversion into E-form crystal. The suspension was further cooled to 15° C. and stirred for 1 hour, followed by cooling to −10° C. The resulting crystal was then centrifuged to give a wet D-form crystal (13.4 kg). This wet D-form crystal was dried under reduced pressure at 60° C. for 28 hours to give the D-form crystal of the fumarate salt of compound (I) (10.5 kg, yield 90.5%, average particle size: 141 μm).
A fumarate salt of compound (I) (10.8 kg) was dissolved at 25° C. in a mixed solvent of ethyl acetate (87.6 kg) and methanol (8.5 kg). After the solution was concentrated, ethyl acetate (80.8 kg) was added at 25° C. to the concentrated residue, followed by stirring at 25° C. for 1 hour to give a C-form crystal. After addition of water (1.5%, 1.3 kg), this C-form crystal was cooled to 15° C. and stirred for 1 hour to ensure its conversion into D-form crystal. The suspension was further cooled to −10° C. and stirred for 1 hour. The resulting crystal was then centrifuged to give a wet D-form crystal (12.7 kg). This wet D-form crystal was dried under reduced pressure at 60° C. for 16 hours to give the D-form crystal of the fumarate salt of compound (I) (10.8 kg, yield 87.4%, average particle size: 82 μm).

SMILES	Tabletting trouble
CC[C@H]1OC(=O)[C@H](C)[C@@H](O[C@H]2C[C@@](C)(OC)[C@@H](O)[C@H](C)O2)[C@H](C)[C@@H](O[C@@H]2O[C@H](C)C[C@H](N(C)C(C)C)[C@H]2O)[C@]2(C)CC(C)=C(O2)[C@H](C)C(=O)[C@]1(C)OC [Comparison Example 1]	Tabletting troubles were observed and Yes
CC[C@H]1OC(=O)[C@H](C)[C@@H](O[C@H]2C[C@@](C)(OC)[C@@H](O)[C@H](C)O2)[C@H](C)[C@@H](O[C@@H]2O[C@H](C)C[C@H](N(C)C(C)C)[C@H]2O)[C@]2(C)CC(C)=C(O2)[C@H](C)C(=O)[C@]1(C)OC [Comparison Example 2, reference compound]	Yes
CC[C@H]1OC(=O)[C@H](C)[C@@H](O[C@H]2C[C@@](C)(OC)[C@@H](O)[C@H](C)O2)[C@H](C)[C@@H](O[C@@H]2O[C@H](C)C[C@H](N(C)C(C)C)[C@H]2O)[C@]2(C)CC(C)=C(O2)[C@H](C)C(=O)[C@]1(C)OC [Example 7]	No
CC[C@H]1OC(=O)[C@H](C)[C@@H](O[C@H]2C[C@@](C)(OC)[C@@H](O)[C@H](C)O2)[C@H](C)[C@@H](O[C@@H]2O[C@H](C)C[C@H](N(C)C(C)C)[C@H]2O)[C@]2(C)CC(C)=C(O2)[C@H](C)C(=O)[C@]1(C)OC [Example 8]	No

From patent US7645864B2, “Erythromycin derivative having novel crystal structures and processes for their production” (Chugai Seiyaku Kabushiki Kaisha, priority 2001, dated 2010)
